Reference: publication doi:10.1101/2025.08.04.668388

Biological target: m54.5p-V5 (C-terminally V5-tagged MCMV m54.5 ORF product) (murine cytomegalovirus (MCMV, Smith, pSM3fr))
Assay: co-IP

B1: PP6C (protein, UniProt Q9CQR6 1-305)
chain: MAPLDLDKYVEIARQCKYLPENDLKRLCDYVCDLLLEESNVQPVSTPVTVCGDIHGQFYDLCELFRTGGQVPDTNYIFMGDFVDRGYYSLETFTYLLALKAKWPDRITLLRGNHESRQITQVYGFYDECQTKYGNANAWRYCTKVFDMLTVAALIDEQILCVHGGLSPDIKTLDQIRTIERNQEIPHKGAFCDLVWSDPEDVDTWAISPRGAGWLFGAKVTNEFVHINNLKLICRAHQLVHEGYKFMFDEKLVTVWSAPNYCYRCGNIASIMVFKDVNTREPKLFRAVPDSERVIPPRTTTPYFL
- binding: binds

B2: PP6R3 (protein, UniProt Q922D4 1-844)
chain: MFWKFDLHSSSHIDTLLEREDVTLKELMDEEDVLQECKAQNRKLIEFLLKAECLEDLVSFIIEEPPQDMDEKIRYKYPNISCELLTSDVSQMNDRLGEDESLLMKLYSFLLNESPLNPLLASFFSKVLSILISRKPEQIVDFLKKKRDFVDLIIKHIGTSAIMDLLLRLLTCIEPPQPRQDVLNWLNEERIIQRLVEIVHPSQEEDRHSNASQSLCEIVRLSRDQMLQVQNSTEPDPLLATLEKQEIIEQLLSNIFHKEKNESAIVSAIQILLTLLETRRPTFEGHIEICPPGMSHSACSVNKSVLEAIRGRLGSFHELLLEPPKKSVMKTTWGILDPPVGNTRLNVIRLISSLLQTNTSSINGDLMELNSIGVILDMFFKYTWNNFLHTQVEICIALILASPFENAENGTITDQDSTGDNLLLKHLFQKCQLIERILEAWDTNEKKQAEGGRRHGYMGHLTRIANCIVHSTDKGPNSALVQQLIKDLPDEVRERWETFCTNSLGETNKRNTVDLAFSDYQMQQMTSNFIDQFGFNDEKFADQDDIGNVSFDRVSDINFTLNTNESGNIALFEACCKERIQQFDDGGSDEEDIWEEKHIAFTPESQRRSSSGSTDSEESTDSEEEDGAKQDLFESSSANTEDKMEVDLNEPPTWSANFDVPMETTHGAPLDSVGSDVWSTEEPMPTKETGWASFSEFTSSLSTKESLRSNSPVEMETSTESVDPLTPGAAALATQPEAPGSMAMEASSDGEEDAESTDKVTETVMNGGMKETLSLTVDAKTETAVFKSEEEKLSTSQDAACKDAEETPEPAEAKCTAPLTPSSSPEQRTDQPSMPSDPSVNGPV
- binding: binds

No constants are given. Whether binding was seen depends on the method and setting. In cells and extracts the contact can be indirect. Binding can be weak; no strength is given.
